The source of these data is PMC4784730.

Sequences of proteins named here, by UniProt entry; tags and fusion partners are left off.
UniProt Q61602: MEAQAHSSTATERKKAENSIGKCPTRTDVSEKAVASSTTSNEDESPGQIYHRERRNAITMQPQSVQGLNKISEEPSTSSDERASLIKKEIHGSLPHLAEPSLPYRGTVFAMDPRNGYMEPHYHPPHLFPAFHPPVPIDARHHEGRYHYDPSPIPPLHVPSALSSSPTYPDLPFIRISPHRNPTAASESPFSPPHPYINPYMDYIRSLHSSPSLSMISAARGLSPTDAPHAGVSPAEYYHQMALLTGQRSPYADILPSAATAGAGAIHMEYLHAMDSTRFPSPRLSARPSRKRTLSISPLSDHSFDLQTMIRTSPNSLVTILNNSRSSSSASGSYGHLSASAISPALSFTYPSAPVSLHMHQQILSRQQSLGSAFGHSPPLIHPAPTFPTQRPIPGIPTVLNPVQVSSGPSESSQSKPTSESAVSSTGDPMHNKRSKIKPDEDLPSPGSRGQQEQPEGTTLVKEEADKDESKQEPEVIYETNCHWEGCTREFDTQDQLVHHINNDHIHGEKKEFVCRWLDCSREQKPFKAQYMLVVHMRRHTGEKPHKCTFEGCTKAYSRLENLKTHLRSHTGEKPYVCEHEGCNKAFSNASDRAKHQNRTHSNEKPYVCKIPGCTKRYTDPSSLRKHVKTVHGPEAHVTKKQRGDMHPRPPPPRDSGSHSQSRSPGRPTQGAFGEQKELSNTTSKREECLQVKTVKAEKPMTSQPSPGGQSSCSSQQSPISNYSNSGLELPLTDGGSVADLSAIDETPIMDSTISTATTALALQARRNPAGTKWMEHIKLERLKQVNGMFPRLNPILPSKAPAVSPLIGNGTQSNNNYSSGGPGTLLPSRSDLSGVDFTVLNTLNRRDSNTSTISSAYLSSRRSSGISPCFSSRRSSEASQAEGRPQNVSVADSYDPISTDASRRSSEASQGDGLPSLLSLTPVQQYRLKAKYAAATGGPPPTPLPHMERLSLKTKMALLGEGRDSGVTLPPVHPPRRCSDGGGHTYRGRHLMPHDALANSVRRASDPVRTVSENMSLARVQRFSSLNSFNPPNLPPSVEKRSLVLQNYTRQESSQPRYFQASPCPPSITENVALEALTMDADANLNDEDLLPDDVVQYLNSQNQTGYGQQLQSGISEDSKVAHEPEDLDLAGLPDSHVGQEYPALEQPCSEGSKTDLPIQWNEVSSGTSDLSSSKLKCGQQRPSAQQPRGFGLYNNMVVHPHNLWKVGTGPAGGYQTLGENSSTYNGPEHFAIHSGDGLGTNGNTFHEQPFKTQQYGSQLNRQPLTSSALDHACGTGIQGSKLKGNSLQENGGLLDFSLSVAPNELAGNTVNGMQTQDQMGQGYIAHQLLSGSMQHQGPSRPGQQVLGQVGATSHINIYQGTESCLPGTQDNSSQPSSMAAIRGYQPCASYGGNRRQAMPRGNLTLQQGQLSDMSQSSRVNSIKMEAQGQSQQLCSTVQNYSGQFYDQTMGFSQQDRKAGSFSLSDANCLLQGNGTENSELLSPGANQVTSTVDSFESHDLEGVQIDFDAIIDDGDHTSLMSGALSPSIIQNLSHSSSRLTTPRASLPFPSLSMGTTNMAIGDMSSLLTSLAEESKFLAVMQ
UniProt Q0VGT2: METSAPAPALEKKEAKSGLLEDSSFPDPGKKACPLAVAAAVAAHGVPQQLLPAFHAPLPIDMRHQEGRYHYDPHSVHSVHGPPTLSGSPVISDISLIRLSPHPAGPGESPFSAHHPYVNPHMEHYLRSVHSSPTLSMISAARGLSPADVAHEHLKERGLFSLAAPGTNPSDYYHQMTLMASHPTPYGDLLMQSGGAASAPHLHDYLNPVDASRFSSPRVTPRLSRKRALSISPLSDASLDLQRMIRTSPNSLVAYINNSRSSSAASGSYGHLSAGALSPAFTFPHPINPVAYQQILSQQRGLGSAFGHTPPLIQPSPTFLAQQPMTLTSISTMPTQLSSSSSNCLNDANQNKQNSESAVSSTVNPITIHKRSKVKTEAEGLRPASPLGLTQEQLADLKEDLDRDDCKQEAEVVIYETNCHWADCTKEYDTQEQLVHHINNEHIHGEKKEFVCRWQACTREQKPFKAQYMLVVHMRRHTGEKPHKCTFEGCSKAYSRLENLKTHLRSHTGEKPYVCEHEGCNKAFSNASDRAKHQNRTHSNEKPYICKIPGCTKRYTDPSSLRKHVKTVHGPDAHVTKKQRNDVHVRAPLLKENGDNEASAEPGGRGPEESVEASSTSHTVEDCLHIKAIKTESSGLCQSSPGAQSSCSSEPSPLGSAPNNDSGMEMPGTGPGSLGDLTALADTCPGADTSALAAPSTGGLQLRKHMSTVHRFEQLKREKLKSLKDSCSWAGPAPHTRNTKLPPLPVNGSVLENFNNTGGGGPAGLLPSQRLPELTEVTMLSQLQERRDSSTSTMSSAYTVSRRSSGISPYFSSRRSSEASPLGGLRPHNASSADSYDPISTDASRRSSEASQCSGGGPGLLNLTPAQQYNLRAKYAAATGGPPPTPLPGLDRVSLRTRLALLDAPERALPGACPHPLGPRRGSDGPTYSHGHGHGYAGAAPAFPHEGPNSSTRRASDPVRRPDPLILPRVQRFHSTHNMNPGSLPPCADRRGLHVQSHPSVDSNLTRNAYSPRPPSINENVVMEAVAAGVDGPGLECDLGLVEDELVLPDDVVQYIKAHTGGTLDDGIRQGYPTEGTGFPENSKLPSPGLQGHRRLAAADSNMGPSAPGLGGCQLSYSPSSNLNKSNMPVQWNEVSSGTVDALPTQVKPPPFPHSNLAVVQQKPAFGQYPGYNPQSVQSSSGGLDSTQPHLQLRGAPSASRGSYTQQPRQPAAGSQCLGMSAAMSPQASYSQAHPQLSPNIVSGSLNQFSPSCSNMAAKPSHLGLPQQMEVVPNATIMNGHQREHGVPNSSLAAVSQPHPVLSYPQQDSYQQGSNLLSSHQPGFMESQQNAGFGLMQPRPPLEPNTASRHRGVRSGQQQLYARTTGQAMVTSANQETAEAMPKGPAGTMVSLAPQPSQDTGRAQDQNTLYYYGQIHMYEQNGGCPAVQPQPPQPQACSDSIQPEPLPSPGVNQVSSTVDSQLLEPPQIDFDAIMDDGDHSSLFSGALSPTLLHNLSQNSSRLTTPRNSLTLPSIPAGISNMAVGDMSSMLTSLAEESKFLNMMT
UniProt P97496: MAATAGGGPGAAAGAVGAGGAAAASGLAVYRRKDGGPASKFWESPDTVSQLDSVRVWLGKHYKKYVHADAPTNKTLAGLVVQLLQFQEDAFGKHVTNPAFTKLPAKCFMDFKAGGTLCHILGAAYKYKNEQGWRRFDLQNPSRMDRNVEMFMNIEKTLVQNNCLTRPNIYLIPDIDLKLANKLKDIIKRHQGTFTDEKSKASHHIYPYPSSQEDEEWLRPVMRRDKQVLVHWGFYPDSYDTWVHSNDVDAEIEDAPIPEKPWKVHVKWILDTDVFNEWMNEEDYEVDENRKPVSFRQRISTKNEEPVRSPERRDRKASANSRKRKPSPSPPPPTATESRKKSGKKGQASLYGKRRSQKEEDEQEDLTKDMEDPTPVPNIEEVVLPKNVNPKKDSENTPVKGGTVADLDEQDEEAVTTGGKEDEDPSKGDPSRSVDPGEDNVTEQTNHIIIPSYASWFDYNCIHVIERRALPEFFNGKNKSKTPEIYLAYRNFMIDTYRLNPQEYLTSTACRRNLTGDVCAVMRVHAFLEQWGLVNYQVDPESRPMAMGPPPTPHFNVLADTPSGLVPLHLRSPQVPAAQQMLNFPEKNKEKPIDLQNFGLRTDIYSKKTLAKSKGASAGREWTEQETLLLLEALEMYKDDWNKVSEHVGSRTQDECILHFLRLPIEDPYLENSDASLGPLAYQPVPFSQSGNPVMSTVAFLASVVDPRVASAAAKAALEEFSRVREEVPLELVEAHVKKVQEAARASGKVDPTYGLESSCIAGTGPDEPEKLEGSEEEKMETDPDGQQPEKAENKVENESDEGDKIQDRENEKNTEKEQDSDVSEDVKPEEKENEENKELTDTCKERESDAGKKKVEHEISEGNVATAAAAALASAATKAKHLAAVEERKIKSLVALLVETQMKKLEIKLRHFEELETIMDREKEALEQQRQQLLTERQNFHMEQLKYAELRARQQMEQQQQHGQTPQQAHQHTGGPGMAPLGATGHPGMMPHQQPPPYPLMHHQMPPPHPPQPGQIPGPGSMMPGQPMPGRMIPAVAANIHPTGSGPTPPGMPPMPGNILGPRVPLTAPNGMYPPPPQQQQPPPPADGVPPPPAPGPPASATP
UniProt Q80U70: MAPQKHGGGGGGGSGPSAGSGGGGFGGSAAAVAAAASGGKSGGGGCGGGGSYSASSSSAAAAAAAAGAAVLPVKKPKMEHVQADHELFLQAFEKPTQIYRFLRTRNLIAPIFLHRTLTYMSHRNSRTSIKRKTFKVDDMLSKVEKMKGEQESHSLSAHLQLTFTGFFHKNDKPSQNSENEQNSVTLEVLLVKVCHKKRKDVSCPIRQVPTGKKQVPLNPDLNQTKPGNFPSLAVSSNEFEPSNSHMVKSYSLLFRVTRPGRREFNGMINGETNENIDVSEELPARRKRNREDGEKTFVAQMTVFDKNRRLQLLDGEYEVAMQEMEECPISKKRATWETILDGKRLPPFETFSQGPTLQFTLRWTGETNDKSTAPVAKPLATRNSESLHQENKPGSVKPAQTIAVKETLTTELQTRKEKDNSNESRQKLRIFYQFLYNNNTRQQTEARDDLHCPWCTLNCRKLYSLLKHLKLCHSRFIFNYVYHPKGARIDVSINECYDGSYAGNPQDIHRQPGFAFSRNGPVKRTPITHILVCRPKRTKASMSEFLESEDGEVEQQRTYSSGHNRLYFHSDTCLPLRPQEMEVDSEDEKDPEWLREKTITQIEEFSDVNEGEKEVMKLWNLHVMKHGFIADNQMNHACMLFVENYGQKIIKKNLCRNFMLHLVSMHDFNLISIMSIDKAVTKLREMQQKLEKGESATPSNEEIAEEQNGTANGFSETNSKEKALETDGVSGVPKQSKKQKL
UniProt Q61188: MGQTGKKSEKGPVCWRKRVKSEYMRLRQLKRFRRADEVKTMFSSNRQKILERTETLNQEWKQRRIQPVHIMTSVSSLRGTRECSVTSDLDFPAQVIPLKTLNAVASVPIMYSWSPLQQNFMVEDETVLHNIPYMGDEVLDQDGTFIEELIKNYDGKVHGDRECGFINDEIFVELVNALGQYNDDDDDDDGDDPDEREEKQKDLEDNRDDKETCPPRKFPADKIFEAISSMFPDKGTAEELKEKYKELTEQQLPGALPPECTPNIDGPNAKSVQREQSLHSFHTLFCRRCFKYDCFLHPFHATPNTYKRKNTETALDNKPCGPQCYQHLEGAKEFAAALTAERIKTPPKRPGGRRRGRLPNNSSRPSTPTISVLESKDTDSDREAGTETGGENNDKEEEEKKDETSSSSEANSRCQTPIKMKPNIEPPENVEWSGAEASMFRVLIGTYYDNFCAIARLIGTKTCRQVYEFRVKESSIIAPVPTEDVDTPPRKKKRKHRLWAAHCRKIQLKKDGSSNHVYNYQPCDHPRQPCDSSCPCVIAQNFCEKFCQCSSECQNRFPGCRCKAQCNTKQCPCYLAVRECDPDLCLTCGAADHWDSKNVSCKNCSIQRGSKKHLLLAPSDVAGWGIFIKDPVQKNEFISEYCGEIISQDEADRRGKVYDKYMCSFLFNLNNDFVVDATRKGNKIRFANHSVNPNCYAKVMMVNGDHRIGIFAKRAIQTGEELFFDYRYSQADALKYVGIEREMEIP

These are yes or no findings as the source states them, for the method shown. Binding seen in cells or lysates may run through a third protein. Some results given as binding are weak or reduced against the parent protein; the word gives no strength.

Assay [1] addresses Gli3FL (mouse (endogenous in E11.5 limb buds)) (UniProt Q61602). Briefly: co-IP; reciprocal immunoprecipitation of endogenous proteins from E11.5 control limb bud lysates, western blot. On the technique in general: In western blotting, separated proteins are transferred to a membrane and probed.
Assay [2] concerns the target Gli2 (mouse (endogenous in E11.5 limb buds)) (UniProt Q0VGT2). The description is as above.
Assay [3] deals with Gli3 (mouse (endogenous in limb buds)) (UniProt Q61602). Briefly: co-IP; immunoprecipitation of endogenous proteins from lysates of developing limbs (stage not stated), western blot; preclear beads as negative control.
The target in assay [4] is Gli2 (mouse (endogenous in E11.5 limb buds)) (UniProt Q0VGT2). The assay is described as above.

For “Srg3/mBaf155 (from UniProt P97496 1-1104)”, the binding entry in assay [1] and in assay [2] was “binds” throughout.

With Suz12 (from UniProt Q80U70 1-741), the binding entry in assay [3] and in assay [4] was “binds” in each case.

With Ezh2 (from UniProt Q61188 1-746), the binding result in assay [3] and in assay [4] was “binds” each time.
